Results taken from publication PMC3940611.
No constants are given. Whether binding was seen depends on the method and setting. In cells and extracts the contact can be indirect. These calls come from enrichment with a bait or labelling near it, and not all partners need be listed. Tags and fused reporters may be left off the sequences shown.

Amino acid sequences for entries named in this document (tags omitted).
UniProt P56546: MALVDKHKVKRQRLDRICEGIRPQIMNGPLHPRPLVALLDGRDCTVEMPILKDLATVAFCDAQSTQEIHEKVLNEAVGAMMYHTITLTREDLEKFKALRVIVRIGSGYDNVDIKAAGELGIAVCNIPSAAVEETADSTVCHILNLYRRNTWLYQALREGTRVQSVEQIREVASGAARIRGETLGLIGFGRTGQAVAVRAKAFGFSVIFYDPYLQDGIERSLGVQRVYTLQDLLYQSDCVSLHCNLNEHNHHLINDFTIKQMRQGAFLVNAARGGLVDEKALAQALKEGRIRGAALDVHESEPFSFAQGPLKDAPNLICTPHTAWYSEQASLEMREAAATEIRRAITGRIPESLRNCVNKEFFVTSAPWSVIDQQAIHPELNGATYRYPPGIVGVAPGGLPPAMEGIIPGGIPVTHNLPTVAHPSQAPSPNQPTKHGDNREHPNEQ

Target: T1, eGFP-Zscan4c fusion protein (mouse) (UniProt Q80VJ6)
T1 sequence: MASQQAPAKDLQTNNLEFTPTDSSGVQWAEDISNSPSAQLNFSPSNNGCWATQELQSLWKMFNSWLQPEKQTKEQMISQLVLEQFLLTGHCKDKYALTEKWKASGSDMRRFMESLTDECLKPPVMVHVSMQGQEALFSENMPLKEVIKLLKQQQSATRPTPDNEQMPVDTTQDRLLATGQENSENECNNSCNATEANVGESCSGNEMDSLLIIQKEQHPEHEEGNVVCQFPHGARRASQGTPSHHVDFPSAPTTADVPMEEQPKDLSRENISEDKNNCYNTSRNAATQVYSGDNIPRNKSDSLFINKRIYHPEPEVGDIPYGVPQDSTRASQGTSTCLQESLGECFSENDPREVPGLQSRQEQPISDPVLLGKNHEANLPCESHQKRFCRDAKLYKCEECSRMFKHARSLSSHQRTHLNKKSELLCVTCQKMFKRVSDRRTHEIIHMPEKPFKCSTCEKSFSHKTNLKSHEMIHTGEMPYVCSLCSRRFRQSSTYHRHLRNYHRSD
Experiment: affinity purification with mass spectrometry; eGFP-Zscan4c induced with Dox for 24 h in R1 ESCs; cytosolic and nuclear extracts exchanged into IP buffer (50 mM Na2HPO4, 150 mM NaCl, pH 7.4); GFP-Trap-A beads 1-3 h at 4°C; glycine pH 2.5 elution; SDS-PAGE, Coomassie bands enriched over uninduced cells excised, LC-MSMS, Mascot

C-Terminal Binding Protein-2 (CtBP2) (from UniProt P56546 1-445)
binding: binds
